PubChem BioAssay AID504786 | Drosophila RNAi Screening Center – 2011

- Aim: 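Knock-downs reducing HIF reporter induction by the iron chelator DFO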 (primary screen)
- System: Drosophila S2 cells with a stable HIF luciferase reporter
- Reagents: long dsRNA against Drosophila genes, about 0.2 µg dsRNA per well of a 384-well plate
- Timing: three days of knock-down, then 20 h of DFO before reading
- Conditions: desferrioxamine (DFO) at 100 µM, an iron chelator that mimics hypoxia, for 20 h
- Measurement: 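Firefly luciferase driven by the mouse ldh-a hypoxia-response element, measured after 20 h of 100 µM DFO; z-scores per plate, higher means more signal lost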
- Reading the numbers: z-score: higher = stronger loss of HIF reporter signal
The screen tested about 21,000 reagents; this is a random part of those with a known target gene and a result. 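Primary screen; positive scores mean lost reporter signal, so the sign may be inverted from the usual convention.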 Reagents against one gene are numbered here. A plus sign joins genes that one reagent is predicted to hit. Not all columns of the deposit are shown.

target gene | reagent no. | z-score, replicate 1
Ldh | 1 | -0.3
CG12107 | 1 | -0.4
CG7201 | 1 | -0.2
oxt | 1 | -0.2
Sema2a | 1 | -0.2
CG6800 | 1 | -0.3
ft | 1 | -0.2
fws | 1 | -0.2
CG17574 | 1 | -0.3
CG30323 | 1 | -0.3
ScpX | 1 | -0.4
CG13252 | 1 | -0.2
TP53INP | 1 | -0.3
Prosap | 1 | -0.4
Prosap | 2 | -0.3
DIP-gamma | 1 | -0.2
Atf3 | 1 | 3.5
Muc11A | 1 | -0.3
RpS29 + snoRNA:Psi18S-1275 | 1 | 6.3
CG6424 | 1 | -0.3
mRpL30 | 1 | 1
Tif-IA | 1 | -0.1
Tif-IA | 2 | 0
CG11885 | 1 | -1.2
CG16779 | 1 | -0.2
Coq8 | 1 | -0.3
CG42360 | 1 | 0
CG32111 (retired record) | 1 | 0
CG15861 | 1 | -0.1
spaw | 1 | -0.3
Gr85a | 1 | -0.2
CG6178 | 1 | -0.3
mRpL38 | 1 | 1.3
CG13404 | 1 | -0.3
dpr4 | 1 | -0.1
dpr4 | 2 | -0.3
tw | 1 | -0.2
wrm1 | 1 | -0.4
Or94b | 1 | -0.3
CG42340 | 1 | -0.4
CG42340 | 2 | -0.3
CG42340 | 3 | 0.2
Qsox3 | 1 | 0.4
Blimp-1 | 1 | -0.5
CG5421 | 1 | -0.2
CG10748 | 1 | -0.2
Nprl3 | 1 | -0.4
B9d1 | 1 | -0.2
CG13924 | 1 | -0.3
eIF3d1 | 1 | 4.8
Osi7 | 1 | -0.1
SAK | 1 | -0.1
CG13022 | 1 | -0.2
COX6CL | 1 | 0.7
Scp2 | 1 | -0.6
Scp2 | 2 | -0.2
IleRS | 1 | -0.2
CG6415 | 1 | -0.3
CG16896 | 1 | 0.1
TppII | 1 | -0.2
CG14826 | 1 | -0.4
Grx5 | 1 | 0.1
Acp26Aa | 1 | -0.2
CG10340 | 1 | -0.3
St2 | 1 | -0.4
Sfmbt | 1 | -0.5
UQCR-C2 | 1 | 0.8
CG5026 | 1 | -0.2
Regnase-1 | 1 | -0.3
sls | 1 | -0.3
sls | 2 | 0.3
sls | 3 | -0.4
CG15878 | 1 | 0.2
Sam-S | 1 | 1
CG34267 | 1 | -0.5
Alg14 | 1 | -0.4
Hinfp | 1 | -0.3
Bacc | 1 | 0.1
CG13442 | 1 | -0.3
Naa80 | 1 | -0.6
Gp210 | 1 | -0.3
Gp210 | 2 | -0.3
lin | 1 | -0.2

Records above whose gene name begins with P or p:
target gene | reagent no. | z-score, replicate 1
Prosap | 1 | -0.4
Prosap | 2 | -0.3
